At least one structure is not confirmed: it was looked up by name or label, or the drawing left a doubt.
Tested on: polymicrobial sepsis induced by CLP surgery
Assay: CLP-induced sepsis, survival and welfare scoring, NTZ with or without 3-day pretreatment (Example 4)
Type: in vivo, C57BL6J mice
Conditions: all observed criteria, 4 days following CLP
Protocol: Polymicrobial sepsis was induced by CLP surgery in C57BL6J mice, as described in Example 1. NTZ was prepared as previously described and administrated per os at 100 mg/kg/day BID either starting 3 days before CLP (3 day pretreatment) or starting on the same day as the CLP surgery (without pretreatment) as shown in FIG. 5A. […]
Welfare scoring of severity of murine sepsis model has been published to harmonize human end points and also to normalize grades observed between animals throughout experiments (Shrum B, Anantha R V, Xu S X et al. A robust scoring system to evaluate sepsis severity in an animal model. BMC Res Notes 2014; 7:233). Animals were individually observed, and changes were recorded and scored according to their intensity. […] For each of these clinical signs, the severity was measured on a scale of 0 to 3. The evolution of the severity was followed and the mean score at each time point was calculated and plotted on graphs. Arbitrary, when mice die or are euthanized, they are scored at 4.

CC(=O)Oc1ccccc1C(=O)Nc1ncc([N+](=O)[O-])s1 [NTZ, [2-[(5-nitro-1,3-thiazol-2-yl)carbamoyl]phenyl]ethanoate]
welfare scoring (severity of sepsis, scale 0 to 3): scores below the control mice
